# Assay results

Source: PubChem BioAssay AID1963582 (Tox21, 2024).

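Potency is fitted from the concentration series in HCT-116 p53 reporter cells, read as a beta-lactamase fluorescence ratio at 16 h. The concentration series mostly goes up to 66 µM. Potency is the fitted concentration that gives half the maximal activation; a lower value means a more potent compound. Calls are based on the whole dose curve, and inconclusive means weak or mixed curves.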

Values are in nM. Every entry below has the call inconclusive. These entries are mostly ones the record files as inconclusive; other results of the assay are not listed here. A potency from a partial, single-point or poor curve is only a rough figure. Some entries filed as inconclusive have a full curve. The first word of each remark tells which way the curve ran; it can be opposite to the aim of the assay.

{"smiles": "O=[N+]([O-])c1cc(C2CCCCC2)c(O)c([N+](=O)[O-])c1", "potency (nM)": "14435", "remark": "fluorescent, partial curve"}
{"smiles": "COC12CC[C@@]3(C[C@@H]1C(C)(O)C(C)(C)C)[C@H]1Cc4ccc(O)c5c4[C@@]3(CCN1CC1CC1)[C@H]2O5", "stereo": "stereo partly specified", "potency (nM)": "51001", "remark": "single point"}
{"smiles": "CC(O)C(=O)[O][Hg][c]1ccccc1", "stereo": "stereo unspecified", "potency (nM)": "4078", "remark": "falling, full curve"}
{"smiles": "Nc1c(N=Nc2ccc(-c3ccc(N=Nc4cc(S(=O)(=O)O)c5ccccc5c4N)cc3)cc2)cc(S(=O)(=O)O)c2ccccc12", "potency (nM)": "22921", "remark": "rising, partial curve"}
{"smiles": "Oc1ccc(C(c2ccc(O)cc2)(C(F)(F)F)C(F)(F)F)cc1", "potency (nM)": "18134", "remark": "activator, single point"}
{"smiles": "c1ccc(OCc2ccc(CCCN3CCOCC3)cc2)cc1", "potency (nM)": "6299", "remark": "rising, full curve, poor fit"}
{"smiles": "Oc1cccc2c(O)cccc12", "potency (nM)": "18215", "remark": "rising, single point"}
{"smiles": "CC[C@H](C)[C@H]1O[C@]2(C=C[C@@H]1C)C[C@@H]1C[C@@H](C/C=C(\\C)[C@@H](O[C@H]3C[C@H](OC)[C@@H](O[C@H]4C[C@H](OC)[C@@H](NC)[C@H](C)O4)[C@H](C)O3)[C@@H](C)/C=C/C=C3\\CO[C@@H]4[C@H](O)C(C)=C[C@@H](C(=O)O1)[C@]34O)O2", "potency (nM)": "11493", "remark": "falling, full curve"}
{"smiles": "CCN(CC)CCNc1ccc(CO)c2sc3ccccc3c(=O)c12", "potency (nM)": "14101"}
{"smiles": "COC(C)(C)CCC[C@H](C)C/C=C/C(C)=C/C(=O)OC(C)C", "potency (nM)": "14468", "remark": "rising, partial curve"}
{"smiles": "CCCC(c1cc(C(C)(C)C)c(O)cc1C)c1cc(C(C)(C)C)c(O)cc1C", "potency (nM)": "10370", "remark": "falling, full curve"}
{"smiles": "C[C@]12CC[C@@H]3c4ccc(O)cc4C[C@@H](CCCCCCCCCS(=O)CCCC(F)(F)C(F)(F)F)[C@H]3[C@@H]1CC[C@@H]2O", "stereo": "stereo partly specified", "potency (nM)": "2850"}
{"smiles": "COc1ccc(Cc2nccc3cc(OC)c(OC)cc23)cc1OC", "potency (nM)": "1410", "remark": "rising, full curve"}
{"smiles": "O=C(Nc1ccc([N+](=O)[O-])cc1Cl)c1cc(Cl)ccc1O", "potency (nM)": "109.1", "remark": "fluorescent, partial curve"}
{"smiles": "O=C1N=C(O)CN1/N=C/c1ccc(-c2ccc([N+](=O)[O-])cc2)o1", "potency (nM)": "20437", "remark": "rising, full curve"}
{"smiles": "CC[C@]1(O)C[C@@H]2CN(CCc3c([nH]c4ccccc34)[C@@](C(=O)OC)(c3cc4c(cc3OC)N(C)[C@H]3[C@@](O)(C(=O)OC)[C@H](OC(C)=O)[C@]5(CC)C=CCN6CC[C@]43[C@@H]65)C2)C1", "potency (nM)": "14.1", "remark": "activator"}
{"smiles": "C[C@]12CC[C@H](O)C[C@H]1CC[C@@H]1[C@@H]2C[C@@H](O)[C@]2(C)[C@@H](C3=CC(=O)OC3)CC[C@]12O", "potency (nM)": "2293", "remark": "fluorescent, full curve"}
{"smiles": "CC(C)(C)c1cc(O)ccc1O", "potency (nM)": "36344", "remark": "fluorescent, single point"}
{"smiles": "CCCCNC(=O)OCC#CI", "potency (nM)": "18215", "remark": "fluorescent"}
{"smiles": "Nc1ccc(Cl)cc1C(=O)c1ccccc1F", "potency (nM)": "8897", "remark": "fluorescent, partial curve, poor fit"}
{"smiles": "O=S1(=O)OCC2C(CO1)C1(Cl)C(Cl)=C(Cl)C2(Cl)C1(Cl)Cl", "stereo": "stereo unspecified", "potency (nM)": "51337", "remark": "rising, single point"}
{"smiles": "CSC(=O)c1c(C(F)F)nc(C(F)(F)F)c(C(=O)SC)c1CC(C)C", "potency (nM)": "40535"}
{"smiles": "CC1(CN2CCC(n3c(=O)[nH]c4ccccc43)CC2)OCc2ccccc2-n2cccc21", "stereo": "stereo unspecified", "potency (nM)": "6299", "remark": "rising, full curve"}

Some entries from above, unchanged:

* CC(O)C(=O)[O][Hg][c]1ccccc1 (stereo unspecified) | potency 4078 nM (falling, full curve)
* CCN(CC)CCNc1ccc(CO)c2sc3ccccc3c(=O)c12 | potency 14101 nM